Test results: article PMC8850192
Substitutions are numbered along the chain they refer to. No constants are given. Whether binding was seen depends on the method and setting. Binding seen in cells or lysates may run through a third protein. These calls come from enrichment with a bait or labelling near it, and not all partners need be listed. For some assays here: Tags and fused reporters may be left off the sequences shown. One block for each molecule: values may come before it.

Tests used:
[1] = target: T1, MET-2 (wild type, in LIN-65::GFP embryos) (C. elegans) (UniProt P34544); test: affinity purification with mass spectrometry; LIN-65::GFP as bait, immunoprecipitation-MS/MS, iBAQ values; WT or met-2-CD embryos
T1 sequence: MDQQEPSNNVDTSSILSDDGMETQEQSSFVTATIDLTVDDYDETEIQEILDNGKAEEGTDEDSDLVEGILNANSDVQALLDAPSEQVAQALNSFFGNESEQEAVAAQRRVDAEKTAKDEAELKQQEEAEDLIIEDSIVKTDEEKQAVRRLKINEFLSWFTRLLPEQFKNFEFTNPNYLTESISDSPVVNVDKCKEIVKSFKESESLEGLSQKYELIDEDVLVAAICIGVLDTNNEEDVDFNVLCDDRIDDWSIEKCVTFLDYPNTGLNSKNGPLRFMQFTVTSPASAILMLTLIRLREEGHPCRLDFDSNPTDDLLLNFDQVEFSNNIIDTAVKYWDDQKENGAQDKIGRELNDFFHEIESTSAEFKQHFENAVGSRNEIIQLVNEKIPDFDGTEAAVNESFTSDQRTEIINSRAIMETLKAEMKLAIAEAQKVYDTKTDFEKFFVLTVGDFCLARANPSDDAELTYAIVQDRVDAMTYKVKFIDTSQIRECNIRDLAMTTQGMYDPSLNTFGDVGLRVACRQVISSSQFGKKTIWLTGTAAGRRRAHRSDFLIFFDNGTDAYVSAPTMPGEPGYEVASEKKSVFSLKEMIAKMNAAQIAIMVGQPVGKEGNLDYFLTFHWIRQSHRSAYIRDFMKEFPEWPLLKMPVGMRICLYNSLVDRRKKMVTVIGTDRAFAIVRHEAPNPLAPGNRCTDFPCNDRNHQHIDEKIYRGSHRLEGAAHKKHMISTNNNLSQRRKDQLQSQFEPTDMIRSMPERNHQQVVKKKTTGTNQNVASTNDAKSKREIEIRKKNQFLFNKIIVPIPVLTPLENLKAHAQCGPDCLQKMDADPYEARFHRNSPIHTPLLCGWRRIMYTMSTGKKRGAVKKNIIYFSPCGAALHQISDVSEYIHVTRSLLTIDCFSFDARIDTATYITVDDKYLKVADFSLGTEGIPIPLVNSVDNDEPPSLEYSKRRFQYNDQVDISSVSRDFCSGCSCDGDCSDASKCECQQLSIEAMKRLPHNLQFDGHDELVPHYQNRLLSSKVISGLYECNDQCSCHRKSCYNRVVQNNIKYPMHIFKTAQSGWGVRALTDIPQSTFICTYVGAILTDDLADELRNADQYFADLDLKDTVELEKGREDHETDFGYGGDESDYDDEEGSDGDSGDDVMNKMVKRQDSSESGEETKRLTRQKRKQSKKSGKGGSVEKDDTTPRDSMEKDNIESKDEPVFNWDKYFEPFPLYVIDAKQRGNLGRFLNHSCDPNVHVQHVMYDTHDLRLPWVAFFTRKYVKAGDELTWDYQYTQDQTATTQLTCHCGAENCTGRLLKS

[2] = target: T2, MET-2-CD (C1237A, catalytically deficient MET-2) (C. elegans) (UniProt P34544); test: as above
T2 sequence: T1 sequence with C1237A

[3] = target: T3, MET-2::FLAG::mCherry (C. elegans) (UniProt P34544); test: affinity purification with mass spectrometry; MET-2::FLAG::mCherry as bait on anti-FLAG-M2 beads; homogenized, sonicated and cleared embryo lysates in TAP buffer (150 mM NaCl, 20 mM Tris-HCl pH 7.5, 0.5% NP-40, 1 mM EDTA, 10% glycerol, 1 mM DTT) at 4 °C; LC-MS/MS, iBAQ values; WT, lin-65Δ(gw1465) and arle-14Δ(tm6845) embryos (ablation of one cofactor did not affect binding of the other to MET-2)
T3 sequence: T1 sequence

[4] = target: LIN-65::GFP (C. elegans); test: affinity purification with mass spectrometry; LIN-65::GFP as bait, immunoprecipitation-MS/MS, iBAQ values; WT or met-2-CD embryos

binding [1]: binds
binding [2]: binds
binding [3]: binds
Molecule: ARLE-14 (C. elegans (endogenous in embryos))

binding [3]: binds
Molecule: LIN-65 (C. elegans (endogenous in embryos))

binding [4]: binds
B1: MET-2 (wild type, in LIN-65::GFP embryos) (enzyme, UniProt P34544 1-1304)
chain: T1 sequence
